Measurements as given in US20220168301A1, “METHODS FOR TREATING SYMPTOMATIC ORTHOSTATIC HYPOTENSION” (Cerecor Inc, priority 2019, published 2022).
“Also recorded” adds a separate entry of the source. At least one compound was matched to its structure with a doubt left.

Amino acid sequences for entries named in this document (tags omitted). Residues count along the entry.
UniProt Q13224, 27-1484: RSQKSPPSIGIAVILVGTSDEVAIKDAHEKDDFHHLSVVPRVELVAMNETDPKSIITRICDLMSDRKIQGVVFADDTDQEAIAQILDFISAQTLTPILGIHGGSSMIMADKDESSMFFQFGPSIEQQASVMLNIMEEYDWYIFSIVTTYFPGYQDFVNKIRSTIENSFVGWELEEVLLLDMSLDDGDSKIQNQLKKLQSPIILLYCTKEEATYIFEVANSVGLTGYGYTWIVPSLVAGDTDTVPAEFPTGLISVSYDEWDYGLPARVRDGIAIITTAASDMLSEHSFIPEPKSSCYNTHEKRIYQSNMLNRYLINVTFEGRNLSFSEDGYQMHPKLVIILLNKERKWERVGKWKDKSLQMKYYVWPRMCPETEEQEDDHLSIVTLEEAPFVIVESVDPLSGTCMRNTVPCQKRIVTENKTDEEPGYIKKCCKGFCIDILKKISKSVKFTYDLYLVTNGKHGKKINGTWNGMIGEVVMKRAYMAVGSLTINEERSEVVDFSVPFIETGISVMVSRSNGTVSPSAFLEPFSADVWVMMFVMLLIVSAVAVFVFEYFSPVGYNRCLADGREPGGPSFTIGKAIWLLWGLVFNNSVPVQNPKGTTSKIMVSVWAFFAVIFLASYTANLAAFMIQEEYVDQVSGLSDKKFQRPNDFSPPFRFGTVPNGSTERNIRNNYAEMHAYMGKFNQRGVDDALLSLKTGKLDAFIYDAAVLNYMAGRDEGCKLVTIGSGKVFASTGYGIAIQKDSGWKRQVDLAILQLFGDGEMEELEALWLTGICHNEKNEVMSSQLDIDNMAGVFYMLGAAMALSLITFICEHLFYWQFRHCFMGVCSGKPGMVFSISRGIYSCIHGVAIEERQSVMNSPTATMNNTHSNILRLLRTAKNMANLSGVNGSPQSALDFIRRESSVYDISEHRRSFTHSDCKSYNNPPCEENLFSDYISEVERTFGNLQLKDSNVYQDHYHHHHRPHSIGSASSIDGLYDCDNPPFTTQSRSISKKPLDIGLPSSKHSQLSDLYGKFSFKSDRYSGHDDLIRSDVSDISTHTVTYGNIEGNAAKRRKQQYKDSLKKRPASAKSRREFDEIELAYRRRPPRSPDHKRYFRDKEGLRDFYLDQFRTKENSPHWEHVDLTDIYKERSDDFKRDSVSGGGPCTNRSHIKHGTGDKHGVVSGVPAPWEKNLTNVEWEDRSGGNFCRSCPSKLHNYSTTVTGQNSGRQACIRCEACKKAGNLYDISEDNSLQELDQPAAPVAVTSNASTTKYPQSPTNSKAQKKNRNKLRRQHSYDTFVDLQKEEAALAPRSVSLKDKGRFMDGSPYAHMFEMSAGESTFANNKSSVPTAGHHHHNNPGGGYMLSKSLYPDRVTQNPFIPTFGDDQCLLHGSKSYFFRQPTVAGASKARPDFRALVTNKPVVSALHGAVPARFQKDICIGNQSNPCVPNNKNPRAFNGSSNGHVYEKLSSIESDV

Experiments:
healthy subjects = assay: 24-hour ambulatory blood pressure monitoring (ABPM), 7-day once-daily dosing study in healthy subjects; format: in vivo, human
Experimental: The effects of CERC-301 were assessed in a randomized, double-blind, placebo-controlled, parallel-group, three-part safety, pharmacokinetic, and pharmacodynamic study in healthy human subjects.
One of the primary objective of the study was to investigative the dose-response relationship between CERC-301 and pharmacodynamic (PD) effects on blood pressure [BP] in healthy subjects. Secondary objectives included the investigation of the safety and tolerability of CERC-301 over 7 days of once-daily administration and the investigation of a single dose and 7-day repeated dose pharmacokinetic (PK) profiles of CERC-301, and to explore sub-group (age or gender) effects on other safety parameters, such as adverse events (AEs).
The study was a randomized, double-blind, placebo-controlled parallel-group, three-part, repeated dose in-patient study investigating the safety, tolerability, PK, and PD of CERC-301 in healthy subjects.
(§1) Part 1: After the screening period, healthy, young male and female subjects were randomly assigned to dose groups as shown in Table 1. Randomized subjects participated in a time-matched baseline BP monitoring day (Day −1), once-daily dosing with study drug during which safety, PK, and PD assessments were performed on Days 1-7, discharge on Day 8, a follow-up period for PK and safety on Days 9-11, and end-of-study visit on Day 16. Each parallel dose group was balanced for gender (approximately equal number of males and females in each group).
as §1, with “2:” for “1:”, “young and intermediate age” for “young”, “2.” for “1.”
Part 3: After the screening period, healthy, young and elderly male and female subjects were randomly assigned to dose groups as shown in Table 3.
as §1, with “Randomized” for “Part 1: After the screening period, healthy, young male and female subjects were randomly assigned to dose groups as shown in Table 1. Randomized”
Subjects received 8, 12, 16 or 20 mg CERC-301 or matching placebo once-daily for 7 days.
PD endpoints included the following […]: • 24-hour Ambulatory Blood Pressure Monitoring (ABPM) • Observed values and time matched change from baseline (pre-dose) of 24-hour ABPM • Mean 24 hours, Sleep and Awake systolic and diastolic BPs. • Mean Arterial Pressure (MAP), pulse pressure, and heart rate. • Observed values and change from baseline of sub-scale scores and Total Mood Disturbance (TMD) scores from Profiles of Mood States (POMS)

[1] = tested on: patients with symptomatic nOH associated with Parkinson's disease; assay: Orthostatic challenge test (OST) blood pressure in patients with nOH; format: in vivo, human; conditions: all doses (8, 12, 16, 20 mg); out to and including 6-hour post dose
rats = conditions: cited from earlier work
monkeys = conditions: cited from earlier work
[2] = tested on: subjects with treatment-resistant depression; conditions: N=5, treatment-resistant depression; cited from earlier work
[3] = tested on: patients with moderate Parkinson's disease; conditions: single oral dose 7 mg; N=16; P=0.110; cited from earlier work
study subjects = conditions: previous studies; cited from earlier work
[4] = molecular target: T1, N-methyl-D-aspartate receptor subunit 2B (NMDA-GluN2B or NR2B) (Homo sapiens, UniProt Q05586+Q13224); conditions: dose range of 8 to 20 mg; cited from earlier work
T1 construct: A dose range of 8 to 20 mg falls within a 50% or greater receptor occupancy; endogenous in cells; host or cells: in vivo, dosed subjects (inferred human)

Compound: Cc1ccc(COC(=O)N2CC[C@H](CNc3ncccn3)[C@H](F)C2)cc1 [CERC-301]
- Effect on ambulatory BP by age subgroup (healthy subjects; 12 mg, young, intermediate age, elderly): no age-dependent differences
- Time course of BP increasing effect for average 24-hour and daytime SBP and DBP (healthy subjects; 20 mg): increased further from Day 4 to Day 7
- Effect on ambulatory SBP, females compared to males (healthy subjects; 20 mg, Day 7): slightly more pronounced in females
- Time course of BP increasing effect for average 24-hour and daytime SBP and DBP (healthy subjects; 8, 12 and 16 mg): appeared to reach a maximum by Day 4; also recorded: appearing to reach a maximum by Day 4
- Effect on average nighttime DBP (healthy subjects; 8 and 12 mg dose groups): little effect
- Effect on average nighttime SBP (healthy subjects; 8 and 12 mg dose groups): little effect
- BP effects, males and females overall (healthy subjects; 8 to 20 mg): appeared similar in males and females
- Effect on systolic blood pressure over the first 12 hours (FIG. 1) (healthy subjects; four doses, normal subjects): rapid, durable, dose-dependent increases in systolic blood pressure
- Standing blood pressure during OST [1]: improvements in standing blood pressure were seen at all doses
- Heart rate and blood pressure (rats): increase heart rate and blood pressure
- Heart rate and blood pressure (monkeys): increase heart rate and blood pressure
- Antidepressant effects [2]: antidepressant effects of CERC-301 were observed
- Motor function (UPDRS-ME) compared with placebo [3]: no improvement compared with placebo
- Lowest dose to show an effect on blood pressure (study subjects): 7 mg
- Receptor occupancy [4]: ≥ 50%
